According to the supplement of paper PMC10849652:
The other results are listed elsewhere or left out. Residues, ends and D or L forms follow the SMILES beside them. *: point of attachment. Cbz = O=C(OCc1ccccc1)*

Protein sequences, listed by entry. Tags and fused reporters are not part of them. Lines headed by an entry give the natural chain unless they say otherwise; changes in a name come on top.
UniProt P25440, whole entry, looked up: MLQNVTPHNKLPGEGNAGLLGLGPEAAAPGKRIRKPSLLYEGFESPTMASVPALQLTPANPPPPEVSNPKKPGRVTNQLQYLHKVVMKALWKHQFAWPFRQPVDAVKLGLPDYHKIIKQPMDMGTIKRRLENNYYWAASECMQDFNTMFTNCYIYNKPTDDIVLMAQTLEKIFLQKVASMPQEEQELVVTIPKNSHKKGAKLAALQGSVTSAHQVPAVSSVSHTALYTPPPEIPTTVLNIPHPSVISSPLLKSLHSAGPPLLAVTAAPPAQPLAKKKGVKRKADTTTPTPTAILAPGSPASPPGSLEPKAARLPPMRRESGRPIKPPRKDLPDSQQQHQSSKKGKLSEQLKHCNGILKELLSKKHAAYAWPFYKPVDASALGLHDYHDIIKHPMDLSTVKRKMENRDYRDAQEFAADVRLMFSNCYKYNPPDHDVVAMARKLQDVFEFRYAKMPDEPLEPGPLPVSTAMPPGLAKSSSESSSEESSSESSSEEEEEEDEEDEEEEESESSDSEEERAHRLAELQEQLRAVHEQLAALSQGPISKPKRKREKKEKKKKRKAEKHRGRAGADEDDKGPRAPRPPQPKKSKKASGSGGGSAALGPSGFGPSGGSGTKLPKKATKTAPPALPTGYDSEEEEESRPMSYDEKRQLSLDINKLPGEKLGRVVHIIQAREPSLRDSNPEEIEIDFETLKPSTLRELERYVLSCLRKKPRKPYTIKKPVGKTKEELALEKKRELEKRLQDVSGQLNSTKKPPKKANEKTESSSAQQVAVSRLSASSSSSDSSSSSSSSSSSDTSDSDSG
UniProt Q5T6C5: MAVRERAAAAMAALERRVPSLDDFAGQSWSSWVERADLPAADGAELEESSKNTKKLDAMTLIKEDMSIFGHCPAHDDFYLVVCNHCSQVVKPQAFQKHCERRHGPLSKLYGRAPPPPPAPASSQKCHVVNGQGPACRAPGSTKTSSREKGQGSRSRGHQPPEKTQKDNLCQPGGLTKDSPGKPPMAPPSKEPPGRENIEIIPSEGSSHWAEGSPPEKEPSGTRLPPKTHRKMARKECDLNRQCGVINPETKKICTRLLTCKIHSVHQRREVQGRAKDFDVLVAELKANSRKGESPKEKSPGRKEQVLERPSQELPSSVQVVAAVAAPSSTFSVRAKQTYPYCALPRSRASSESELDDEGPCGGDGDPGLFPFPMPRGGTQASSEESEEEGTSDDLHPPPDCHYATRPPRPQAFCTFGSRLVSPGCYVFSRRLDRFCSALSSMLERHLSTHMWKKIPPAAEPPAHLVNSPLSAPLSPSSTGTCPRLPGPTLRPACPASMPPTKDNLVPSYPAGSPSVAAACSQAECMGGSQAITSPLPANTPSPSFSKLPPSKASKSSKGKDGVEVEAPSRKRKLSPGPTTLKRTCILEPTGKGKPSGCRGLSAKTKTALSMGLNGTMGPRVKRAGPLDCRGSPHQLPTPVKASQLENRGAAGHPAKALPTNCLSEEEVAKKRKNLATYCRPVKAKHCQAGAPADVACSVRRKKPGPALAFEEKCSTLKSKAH
UniProt Q8IXM2, whole entry, looked up: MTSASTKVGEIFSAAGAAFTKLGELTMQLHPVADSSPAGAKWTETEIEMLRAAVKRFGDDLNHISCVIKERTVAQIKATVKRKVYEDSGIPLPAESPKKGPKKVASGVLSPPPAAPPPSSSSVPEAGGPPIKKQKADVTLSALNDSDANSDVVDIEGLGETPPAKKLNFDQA
UniProt Q9NWD9: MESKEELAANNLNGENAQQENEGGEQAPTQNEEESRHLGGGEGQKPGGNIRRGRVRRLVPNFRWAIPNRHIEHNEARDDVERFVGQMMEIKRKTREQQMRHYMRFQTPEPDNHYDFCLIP
UniProt Q9NP55: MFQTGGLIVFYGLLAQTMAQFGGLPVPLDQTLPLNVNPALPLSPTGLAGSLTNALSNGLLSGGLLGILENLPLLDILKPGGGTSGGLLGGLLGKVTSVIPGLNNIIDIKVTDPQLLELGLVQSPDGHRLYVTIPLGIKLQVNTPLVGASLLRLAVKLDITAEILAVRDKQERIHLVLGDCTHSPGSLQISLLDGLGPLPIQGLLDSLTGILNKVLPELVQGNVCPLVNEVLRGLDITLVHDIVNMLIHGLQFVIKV
UniProt Q7Z5W3: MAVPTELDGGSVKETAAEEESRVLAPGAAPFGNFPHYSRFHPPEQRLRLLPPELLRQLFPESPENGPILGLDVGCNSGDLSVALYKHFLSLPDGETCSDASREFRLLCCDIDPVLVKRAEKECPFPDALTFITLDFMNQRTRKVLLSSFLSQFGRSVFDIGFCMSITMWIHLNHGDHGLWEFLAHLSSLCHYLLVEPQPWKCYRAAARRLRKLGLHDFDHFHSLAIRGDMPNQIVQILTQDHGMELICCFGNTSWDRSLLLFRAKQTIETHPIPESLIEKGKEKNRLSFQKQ
UniProt Q6W2J9: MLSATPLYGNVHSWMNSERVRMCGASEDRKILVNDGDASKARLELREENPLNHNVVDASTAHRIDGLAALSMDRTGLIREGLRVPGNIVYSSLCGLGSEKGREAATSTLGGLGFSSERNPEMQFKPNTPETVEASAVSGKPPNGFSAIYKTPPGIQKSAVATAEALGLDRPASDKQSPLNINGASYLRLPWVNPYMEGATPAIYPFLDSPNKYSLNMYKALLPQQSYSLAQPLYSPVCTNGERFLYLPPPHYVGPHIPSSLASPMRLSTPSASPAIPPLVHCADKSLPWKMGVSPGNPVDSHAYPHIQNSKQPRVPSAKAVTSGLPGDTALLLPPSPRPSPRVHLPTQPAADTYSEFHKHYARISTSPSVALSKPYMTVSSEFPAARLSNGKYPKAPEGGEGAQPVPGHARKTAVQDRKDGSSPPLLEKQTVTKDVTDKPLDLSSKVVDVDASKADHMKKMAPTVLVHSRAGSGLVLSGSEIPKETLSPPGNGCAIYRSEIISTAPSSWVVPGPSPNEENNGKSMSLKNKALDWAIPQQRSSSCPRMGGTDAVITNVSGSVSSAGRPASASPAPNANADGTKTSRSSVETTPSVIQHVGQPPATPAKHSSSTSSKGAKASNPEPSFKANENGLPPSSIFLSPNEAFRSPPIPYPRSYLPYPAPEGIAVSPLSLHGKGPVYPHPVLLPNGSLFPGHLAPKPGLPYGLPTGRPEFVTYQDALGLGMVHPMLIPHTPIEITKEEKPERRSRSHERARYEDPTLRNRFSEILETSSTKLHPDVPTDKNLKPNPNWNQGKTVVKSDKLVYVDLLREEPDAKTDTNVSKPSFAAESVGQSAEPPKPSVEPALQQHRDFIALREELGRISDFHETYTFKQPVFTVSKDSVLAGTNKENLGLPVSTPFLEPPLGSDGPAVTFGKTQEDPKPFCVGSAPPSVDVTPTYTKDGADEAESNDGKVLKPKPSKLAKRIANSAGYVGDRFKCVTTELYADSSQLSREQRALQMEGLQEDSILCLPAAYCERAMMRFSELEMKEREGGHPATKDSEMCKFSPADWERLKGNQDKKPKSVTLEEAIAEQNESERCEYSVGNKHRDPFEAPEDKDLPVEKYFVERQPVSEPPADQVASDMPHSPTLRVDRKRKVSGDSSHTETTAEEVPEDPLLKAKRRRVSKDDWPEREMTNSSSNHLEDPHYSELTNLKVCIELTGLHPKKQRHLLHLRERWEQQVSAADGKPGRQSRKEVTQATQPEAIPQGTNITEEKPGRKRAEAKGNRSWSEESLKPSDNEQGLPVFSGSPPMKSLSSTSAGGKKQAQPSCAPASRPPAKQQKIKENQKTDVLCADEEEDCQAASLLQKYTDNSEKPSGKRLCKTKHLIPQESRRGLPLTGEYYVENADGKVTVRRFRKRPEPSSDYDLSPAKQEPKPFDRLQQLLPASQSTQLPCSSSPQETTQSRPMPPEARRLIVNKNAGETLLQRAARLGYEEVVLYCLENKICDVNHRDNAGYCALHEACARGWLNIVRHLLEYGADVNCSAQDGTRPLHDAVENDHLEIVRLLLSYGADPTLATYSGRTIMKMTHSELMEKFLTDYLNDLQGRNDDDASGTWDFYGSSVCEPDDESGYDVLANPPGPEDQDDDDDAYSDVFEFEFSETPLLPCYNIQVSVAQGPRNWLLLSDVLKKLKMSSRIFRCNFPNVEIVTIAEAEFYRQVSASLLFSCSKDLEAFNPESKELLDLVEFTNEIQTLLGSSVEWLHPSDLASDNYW
UniProt Q9NZS9: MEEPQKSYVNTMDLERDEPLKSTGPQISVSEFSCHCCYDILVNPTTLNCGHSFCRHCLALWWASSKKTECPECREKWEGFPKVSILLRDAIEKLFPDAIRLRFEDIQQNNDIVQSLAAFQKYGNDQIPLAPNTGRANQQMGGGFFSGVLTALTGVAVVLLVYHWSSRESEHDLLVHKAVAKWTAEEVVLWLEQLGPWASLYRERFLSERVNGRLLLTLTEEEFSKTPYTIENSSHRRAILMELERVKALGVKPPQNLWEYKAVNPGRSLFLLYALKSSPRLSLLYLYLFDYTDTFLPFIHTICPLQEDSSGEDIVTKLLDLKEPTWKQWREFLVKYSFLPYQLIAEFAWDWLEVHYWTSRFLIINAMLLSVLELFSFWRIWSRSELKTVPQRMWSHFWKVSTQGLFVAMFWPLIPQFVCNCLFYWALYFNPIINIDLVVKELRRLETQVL
UniProt Q8NCR0: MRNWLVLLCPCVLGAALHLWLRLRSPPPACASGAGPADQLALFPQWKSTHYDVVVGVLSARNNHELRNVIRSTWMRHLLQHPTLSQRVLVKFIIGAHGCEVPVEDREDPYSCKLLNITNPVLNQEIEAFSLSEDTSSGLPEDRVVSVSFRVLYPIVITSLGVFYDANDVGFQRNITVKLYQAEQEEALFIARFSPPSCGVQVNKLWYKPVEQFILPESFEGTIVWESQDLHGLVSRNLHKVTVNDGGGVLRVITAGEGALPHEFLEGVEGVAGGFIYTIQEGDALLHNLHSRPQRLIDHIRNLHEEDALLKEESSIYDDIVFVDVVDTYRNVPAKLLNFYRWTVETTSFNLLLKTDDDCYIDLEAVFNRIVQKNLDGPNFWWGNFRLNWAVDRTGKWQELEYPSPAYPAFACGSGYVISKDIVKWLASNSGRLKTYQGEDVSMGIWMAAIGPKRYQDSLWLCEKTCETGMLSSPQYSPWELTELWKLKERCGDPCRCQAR
UniProt Q96IK1: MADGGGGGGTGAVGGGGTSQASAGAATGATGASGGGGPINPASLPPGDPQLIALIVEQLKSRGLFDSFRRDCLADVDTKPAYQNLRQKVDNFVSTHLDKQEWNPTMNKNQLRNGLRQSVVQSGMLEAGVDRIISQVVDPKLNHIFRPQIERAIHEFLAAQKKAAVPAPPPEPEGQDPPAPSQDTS
UniProt Q96GD4, whole entry, looked up: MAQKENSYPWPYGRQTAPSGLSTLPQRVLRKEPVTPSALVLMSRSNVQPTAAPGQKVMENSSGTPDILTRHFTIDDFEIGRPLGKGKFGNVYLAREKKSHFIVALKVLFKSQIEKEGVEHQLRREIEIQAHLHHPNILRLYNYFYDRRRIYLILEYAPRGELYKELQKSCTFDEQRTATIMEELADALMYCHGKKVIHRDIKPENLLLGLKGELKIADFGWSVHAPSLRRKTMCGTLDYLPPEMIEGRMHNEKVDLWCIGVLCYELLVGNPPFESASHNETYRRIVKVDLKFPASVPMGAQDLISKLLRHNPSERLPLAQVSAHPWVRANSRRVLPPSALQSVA
UniProt O60238, whole entry, looked up: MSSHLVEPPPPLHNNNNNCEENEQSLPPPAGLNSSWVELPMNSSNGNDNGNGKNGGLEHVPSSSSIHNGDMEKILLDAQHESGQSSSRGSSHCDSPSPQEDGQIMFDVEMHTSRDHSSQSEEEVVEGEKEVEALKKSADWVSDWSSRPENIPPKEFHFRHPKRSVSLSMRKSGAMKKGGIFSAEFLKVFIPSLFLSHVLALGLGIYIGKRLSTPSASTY
UniProt Q9NQS1: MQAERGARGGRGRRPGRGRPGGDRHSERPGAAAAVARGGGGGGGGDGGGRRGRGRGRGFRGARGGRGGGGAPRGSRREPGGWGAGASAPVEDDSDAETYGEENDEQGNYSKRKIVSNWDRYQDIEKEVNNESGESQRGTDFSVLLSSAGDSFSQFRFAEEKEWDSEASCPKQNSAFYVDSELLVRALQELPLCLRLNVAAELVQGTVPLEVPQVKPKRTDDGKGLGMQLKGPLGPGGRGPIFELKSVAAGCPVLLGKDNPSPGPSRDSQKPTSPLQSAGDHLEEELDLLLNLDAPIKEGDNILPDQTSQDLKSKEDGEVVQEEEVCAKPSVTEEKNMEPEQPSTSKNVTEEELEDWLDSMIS
UniProt Q9BYG0: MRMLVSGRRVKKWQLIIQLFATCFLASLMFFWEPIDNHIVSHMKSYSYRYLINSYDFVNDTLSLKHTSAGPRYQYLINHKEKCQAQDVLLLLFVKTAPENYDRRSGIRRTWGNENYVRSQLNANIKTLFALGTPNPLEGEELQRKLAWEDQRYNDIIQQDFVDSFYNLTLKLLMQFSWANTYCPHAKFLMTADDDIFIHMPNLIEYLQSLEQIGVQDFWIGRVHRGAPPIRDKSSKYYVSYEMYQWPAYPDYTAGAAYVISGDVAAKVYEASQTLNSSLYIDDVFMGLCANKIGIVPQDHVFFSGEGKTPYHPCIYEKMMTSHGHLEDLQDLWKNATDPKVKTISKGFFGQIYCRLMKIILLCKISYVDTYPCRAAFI

Columns and labels:
Experiment in all cases: log2 fold change, soluble protein after heating vs DMSO (PISA); higher = thermal stabilisation; K562 cells, 10 uM, 30 min; active = over 0.2 and 3.5 SD of the protein, either way, in both replicates (recomputed)
[1] = compound: C1=CC=C(C=C1)C2=NC(=C(N2)C3=CC=NC=C3)C4=CC(=C(C=C4)Cl)O
Procedure, shortened: (§1)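 Soluble protein was quantified by TMTpro 16plex LC-MS/MS after channel sums were equalised. It was obtained as the supernatant after 21,000xg for 90 min from pooled aliquots of K562 cells (2×10^6 cells/mL, 10 μM compound, 30 min) heated for 3 min across 48°C-58°C and extracted in PBS with 0.5% NP-40 at 4°C. Thermal stability values are relative to control samples and come from duplicates. They are given as log2 fold changes.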

[2] = compound: C1CCN(C1)C(=O)NC2=CC=CC(=C2)NC3=NC=C(C(=N3)NCCC4=CN=CN4)Br
Procedure, shortened: as §1

[3] = compound: C1CN(CCC1(CC2=CC=C(C=C2)Cl)N)C3=NC=NC4=C3C=CN4
Procedure, shortened: as §1

ralimetinib = compound: CC(C)(C)Cn1c(N)nc2ccc(-c3[nH]c(C(C)(C)C)nc3-c3ccc(F)cc3)nc21 [ralimetinib]
Procedure, shortened: as §1

[4] = compound: CC(C)C[C@@H](C=O)NC(=O)[C@H](CC(C)C)NC(=O)[C@H](CC(C)C)NC(=O)OCc1ccccc1
Procedure, shortened: as §1

[5] = compound: CC1=C(C2=C(C=C1)C(=O)C3=CC=CC=C3N2CCCN)C
Procedure, shortened: as §1

[6] = compound: C/C(=N\NC(=O)C1=CC(=CC=C1)S(=O)(=O)N2CCOCC2)/C3=C(C=CC(=C3)Cl)O
Procedure, shortened: as §1

[7] = compound: C1=CC(=C(C=C1Cl)C2=NC3=NC=CN=C3C(=N2)NC4=CC=NC=C4)F
Procedure, shortened: as §1

[8] = compound: C1=CC2=C(C=CC(=C2)/C=C\3/C(=O)NC(=NCC4=CC=CS4)S3)N=C1
Procedure, shortened: as §1

[9] = compound: C1=CC2=NC=CN=C2C=C1/C=C/3\C(=O)NC(=O)S3
Procedure, shortened: as §1

[10] = compound: C1=CC=C2C(=C1)C3=NNC4=CC=CC(=C43)C2=O
Procedure, shortened: as §1

ibrutinib = compound: C=CC(=O)N1CCC[C@@H](n2nc(-c3ccc(Oc4ccccc4)cc3)c3c(N)ncnc32)C1 [ibrutinib]
Procedure, shortened: as §1

[11] = compound: CC(=O)c1cnc2ccc(-c3cc(Cl)c(O)c(Cl)c3)nc2c1N[C@H]1CC[C@H](CN(C)C)CC1
Procedure, shortened: as §1

[12] = compound: CC(C)(O)CC(=O)NCCn1ccc2ncnc(Nc3ccc(Oc4cccc(C(F)(F)F)c4)c(Cl)c3)c21
Procedure, shortened: as §1

[13] = compound: CC1=C(C(CC(=O)N1)C2=CC=C(C=C2)C(F)(F)F)C(=O)NC3=C(C=C4C(=C3)C=NN4)F
Procedure, shortened: as §1

erlotinib = compound: C#Cc1cccc(Nc2ncnc3cc(OCCOC)c(OCCOC)cc23)c1 [erlotinib]
Procedure, shortened: as §1

[14] = compound: C1=CC(=CC=C1C2=NC3=C(N2)C=C(C=C3)C(=O)N)OC4=CC=C(C=C4)Cl
Procedure, shortened: as §1

[15] = compound: CC(C)C1=C2N=C(C=C(N2N=C1)NCC3=CC=CC=C3)NCCCCCCN
Procedure, shortened: as §1

IRAK-1-4 Inhibitor I = compound: C1COCCN1CCN2C3=CC=CC=C3N=C2NC(=O)C4=CC(=CC=C4)[N+](=O)[O-] [IRAK-1-4 Inhibitor I]
Procedure, shortened: as §1

pinometostat = compound: CC(C)N(C[C@H]1O[C@@H](n2cnc3c(N)ncnc32)[C@H](O)[C@@H]1O)[C@H]1C[C@@H](CCc2nc3cc(C(C)(C)C)ccc3[nH]2)C1 [pinometostat]
Procedure, shortened: as §1

Measured: log2 fold change

BORCS8 (UniProt Q96FH0)
inactive: [1] 0.003 | [2] -0.059 | [3] -0.098 | ralimetinib 0.045 | [4] -0.119 | [5] 0.311

BNIP3 (UniProt Q12983)
inactive: [6] -0.021 | [7] -0.086 | [8] 0.098 | [9] -0.035 | [1] -0.023 | [10] -0.107 | [2] -0.056 | [3] 0.023 | ibrutinib 0.016 | [11] -0.156 | ralimetinib 0.035 | [12] 0 | [4] 0.184 | [13] 0.029 | [5] -0.046

AZI2 (UniProt Q9H6S1)
inactive: erlotinib -0.039 | [14] -0.211 | [9] 0.009 | [1] -0.012 | [2] -0.025 | [3] 0.04 | ibrutinib 0.046 | ralimetinib -0.241 | [15] -0.126 | [4] -0.09 | [5] 0.022

AZIN1 (UniProt O14977)
inactive: [1] -0.021 | ralimetinib 0.033 | [4] 0.331

BRD2 isoform 2 (UniProt P25440)
inactive: erlotinib -0.552 | [14] 0.204 | [8] -0.073 | [9] 0.367 | [10] 0.137 | [2] -0.08 | [3] -0.002 | IRAK-1-4 Inhibitor I 0.091 | ibrutinib -0.164 | [11] -0.63 | [15] 0.042 | pinometostat 0.038 | [5] -0.117

ATXN2L (UniProt H3BUF6)
inactive: [9] -0.04 | [1] 0.219 | IRAK-1-4 Inhibitor I -0.017 | ibrutinib -0.039 | ralimetinib -0.031 | [4] -0.001 | pinometostat 0.021 | [13] 0.039

BMP1 (UniProt P13497)
inactive: erlotinib -0.102 | [14] 0.215 | [9] 0.189 | ibrutinib 0.143 | [15] 0.233

BPTF (UniProt Q12830)
inactive: erlotinib 0.079 | [7] 0.05 | [14] -0.102 | IRAK-1-4 Inhibitor I 0.01 | [12] 0.226 | [15] -0.079 | pinometostat -0.001 | [13] 0.054

BAIAP2 isoform 4 (UniProt Q9UQB8)
inactive: [2] -0.16 | [3] -0.048 | [5] 0.053

AUNIP isoform 2 (UniProt Q9H7T9)
inactive: erlotinib -0.023 | [6] 0.066 | [14] 0.297 | [8] 0.083 | [10] 0.027 | [2] 0.041 | [3] 0.066 | [11] -0.219 | [15] -0.134 | [5] -0.141

ATXN7L2 (UniProt Q5T6C5)
inactive: [7] 0.134 | [12] 0.041

BAZ1B (UniProt Q9UIG0)
inactive: IRAK-1-4 Inhibitor I -0.126 | pinometostat 0.041 | [13] 0.074

BAP18 isoform 3 (UniProt Q8IXM2)
inactive: erlotinib 0.02 | [14] -0.146 | [2] -0.039 | [3] -0.015 | [15] 0.074 | [5] -0.183

ATRX (UniProt P46100)
inactive: [6] 0.016 | [8] -0.153 | [10] -0.076 | [11] -0.099

BEX4 (UniProt Q9NWD9)
inactive: erlotinib -0.084 | [14] -0.028 | [9] -0.045 | ibrutinib 0.094 | [15] 0.073

BPIFA1 (UniProt Q9NP55)
inactive: [9] -0.087 | [1] -0.211 | IRAK-1-4 Inhibitor I -0.252 | ibrutinib 0.08 | ralimetinib -0.043 | [4] -0.385 | pinometostat -0.072 | [13] -0.323

BCAS3 isoform 8 (UniProt Q9H6U6)
inactive: erlotinib -0.099 | [6] -0.036 | [14] 0.186 | [8] 0 | [10] 0.132 | [2] -0.016 | [3] 0.107 | IRAK-1-4 Inhibitor I 0.041 | [11] -0.185 | [15] -0.062 | pinometostat 0.014 | [5] -0.035

BCDIN3D (UniProt Q7Z5W3)
inactive: [6] 0.155 | [8] 0.112 | [9] 0.088 | [10] 0.049 | [2] -0.188 | [3] 0.177 | ibrutinib 0.059 | [11] -0.109 | [5] 0.04

BORA (UniProt Q6PGQ7)
inactive: [7] -0.552 | [9] 0.286 | ibrutinib -0.242 | [12] -0.037

BNIP2 (UniProt H7C096)
inactive: erlotinib -0.055 | [14] 0.144 | [9] -0.101 | ibrutinib 0.197 | [15] -0.266

BCOR (UniProt Q6W2J9)
inactive: erlotinib 0.1 | [7] -0.134 | [14] -0.124 | [9] 0.025 | [2] 0.325 | [3] -0.024 | IRAK-1-4 Inhibitor I 0.078 | ibrutinib -0.043 | [12] 0.03 | [15] 0.062 | pinometostat 0.087 | [5] 0

BCL7B (UniProt Q9BQE9)
inactive: IRAK-1-4 Inhibitor I -0.349 | pinometostat 0.116

BFAR (UniProt Q9NZS9)
inactive: [7] 0.087 | [12] -0.07

B3GALNT2 (UniProt Q8NCR0)
inactive: erlotinib 0.018 | [7] 0.055 | [14] 0.119 | [9] -0.082 | [1] 0.035 | [2] 0.243 | [3] -0.425 | IRAK-1-4 Inhibitor I -0.198 | ibrutinib 0.003 | ralimetinib 0.142 | [12] -0.004 | [15] -0.214 | [4] 0.037 | pinometostat -0.15 | [5] 0

B4GALT4 (UniProt O60513)
inactive: [9] -0.032 | [1] 0.177 | ibrutinib 0.094 | ralimetinib 0.248 | [4] -0.174 | [13] 0.042

BCS1L, A0A2R8Y7T3
inactive: [9] -0.358 | ibrutinib 0.035

BCL7C isoform 2 (UniProt Q8WUZ0)
inactive: erlotinib -0.163 | [7] -0.452 | [14] 0.143 | [9] 0.074 | ibrutinib 0.008 | [12] 0.076 | [15] 0.052 | [13] 0.05

BRCA1 isoform 7 (UniProt P38398)
inactive: erlotinib 0.312 | [14] -0.312 | [1] -0.222 | IRAK-1-4 Inhibitor I 0.02 | ralimetinib -0.029 | [15] 0.127 | [4] 0.164 | pinometostat 0.015

BOD1 (UniProt Q96IK1)
inactive: erlotinib -0.036 | [14] 0.039 | [1] 0.043 | ralimetinib -0.025 | [15] 0.032 | [4] 0

AURKB isoform 5 (UniProt Q96GD4)
inactive: [6] 0.086 | [8] -0.382 | [10] 1.08 | [2] 1.33 | [3] 0.1 | [11] 1.18 | [13] 0.015 | [5] -0.13

BCR (UniProt P11274)
inactive: erlotinib -0.032 | [7] -0.525 | [14] -0.306 | [9] 0.023 | [1] -0.069 | [2] 0.007 | [3] -0.544 | IRAK-1-4 Inhibitor I -0.175 | ibrutinib 0.101 | ralimetinib 0.123 | [12] -0.047 | [15] -0.505 | [4] 0.198 | pinometostat 0.362 | [5] 0.067

BNIP3L (UniProt O60238)
inactive: erlotinib 0.001 | [14] 0.056 | [1] -0.228 | [2] 0.035 | [3] 0.014 | IRAK-1-4 Inhibitor I -0.056 | ralimetinib -0.148 | [15] 0.081 | [4] 0.35 | pinometostat 0.066 | [13] 0.072 | [5] -0.279

AVEN (UniProt Q9NQS1)
inactive: erlotinib 0.089 | [7] -0.08 | [14] -0.027 | [9] -0.059 | ibrutinib 0.065 | [12] 0 | [15] -0.008

Two records picked at random from those above, as already listed:
AURKB isoform 5 (UniProt Q96GD4)
inactive: [6] 0.086 | [8] -0.382 | [10] 1.08 | [2] 1.33 | [3] 0.1 | [11] 1.18 | [13] 0.015 | [5] -0.13

BOD1 (UniProt Q96IK1)
inactive: erlotinib -0.036 | [14] 0.039 | [1] 0.043 | ralimetinib -0.025 | [15] 0.032 | [4] 0

(further entries)

BPIFB1 (UniProt Q8TDL5)
inactive: [13] -0.879

B3GNT5 (UniProt Q9BYG0)
inactive: erlotinib 0.025 | [7] 0.015 | [14] 0.071 | [9] -0.006 | IRAK-1-4 Inhibitor I 0.076 | ibrutinib 0.102 | [12] -0.063 | [15] -0.06 | pinometostat 0.041 | [13] -0.011
